{"source": "patent US9192589B2", "about": "“Chalcones as enhancer of antimicrobial agents” (priority 2009, dated 2015)", "key": {"A. viscosus": {"test_system": "A. viscosus", "test": "MIC assay using A. viscosus as reference organism (96-well, OD610)", "type": "cell-based", "settings": "Actinomyces viscosus, compound alone, 0.5x TSB, overnight 37° C.", "procedure": "The compound CK-4 was first tested to assess whether it had antimicrobial efficacy on its own. An MIC assay was performed on two known anti-bacterial agents, as well as CK-4, using A. viscosus as the reference organism.\n(§1) Actinomyces viscosus (ATCC#43146) was grown in trypticase soy broth supplemented with 0.6% yeast extract (TSB-YE) at 37° C., static culture. For mixed species assays, the source of bacteria was a continuous culture chemostat inoculated with A. viscosus, Lactobacillus casei (ATCC #334), Streptococcus oxalis (ATCC #35037), Fusobacterium nucleatum (ATCC #10953), and Veilonella parvula (ATCC #17745). This mixed culture was maintained in a specialized complex medium in a continuous culture chemostat at 37° C.\nMIC assays were performed using A. viscosus as a reference organism. Compounds to be tested were plated in the duplicate rows of the first column of a sterile 96-well culture plate. Two-fold serial dilutions were performed into 0.5×TSB across the plate. […] The OD610 of the entire plate was read on a Perkin Elmer EnVision microplate reader. Absorbance values for duplicate wells were averaged and compared to values for wells containing bacteria in media alone. MIC values were determined as the concentration of active in the last well for which growth of bacteria was inhibited relative to the media controls. […]"}, "A. Viscosus biofilm": {"test_system": "A. Viscosus biofilm", "test": "Inhibition of single species biofilm formation (BEC50, crystal violet)", "type": "cell-based, Actinomyces viscosus", "procedure": "as §1\nTo assess the bioenhancing ability of CK-4, inhibition of single species biofilm formation tests were conducted. Actives of interest were plated in the first column of a sterile 384-well culture plate and serial twofold dilutions were performed across the plate in 0.5× TSB. First generation cultures of A. Viscosus bacteria were grown overnight in TSB-YE. Cultures were diluted to an OD610˜0.2 in 0.5×TSB and plated in the wells containing serial dilutions of actives. Plates were incubated for 24 hours at 37° C. to allow growth and biofilm formation to occur.\nFollowing incubation, supernatants were removed from the plate and remaining biofilms were stained with 0.03% Grain's crystal violet. Stained plates were read on a Perkin Elmer EnVision microplate reader for absorbance at 590 nm."}}, "data": [{"smiles": "CCCCCCCCCCCCCCCC[n+]1ccccc1", "note": "[CPC, cetyl pyridinium chloride]", "values": [{"measurement": "MIC", "setting": "A. viscosus", "result": "< 1", "unit": "µg/mL"}, {"measurement": "BEC50 alone", "setting": "A. Viscosus biofilm; A. viscosus single species biofilm, 24 hours, agent alone", "result": 1.95}, {"measurement": "BEC50 with CK-4", "setting": "A. Viscosus biofilm; A. viscosus single species biofilm, 24 hours, with CK-4", "result": 0.49}, {"measurement": "decrease in BEC50 compared to agent alone", "setting": "A. Viscosus biofilm; with CK-4", "result": "~4", "unit": "fold"}]}]}
